Measurements: patent US20240271152A1, “ENHANCING NITROGEN FIXATION WITH FUN” (Aarhus Universitet, published 2024)
Results are given in words; binding and its absence hold for the method and conditions named. Some entries that bind do so weakly or less than the wild type. For some assays here: Where a sequence is shown, tags or fusion partners need not be part of it.

How the values were obtained:
[1] = molecular target: FUN sensor with the zipper domain (residues 178-480), N-terminally tagged with 7xHis and GB1 (Lotus japonicus); experiment: dynamic light scattering, 100 µM ZnCl2, reversed with 5 mM EDTA; self-association
[2] = molecular target: FUN sensor with the zipper domain (residues 178-480), N-terminally tagged with 7xHis and GB1 (Lotus japonicus); experiment: dynamic light scattering with and without 100 µM ZnCl2; self-association
[3] = molecular target: FUN sensor domain (residues 244-480) of Lotus japonicus FUN (Lotus japonicus); experiment: self-association (filamentation) of the purified sensor domain; DLS, SAXS, EM
[4] = molecular target: FUN sensor domain (residues 244-480) of Lotus japonicus FUN (Lotus japonicus); experiment: negative stain electron microscopy; filaments disassembled when zinc was removed with EDTA
[5] = molecular target: FUN sensor domain (residues 244-480) of Lotus japonicus FUN (Lotus japonicus); experiment: summary of DLS, SAXS and EM on the sensor domain
[6] = molecular target: FUN sensor domain (residues 244-480) of Lotus japonicus FUN (Lotus japonicus); experiment: SAXS, self-association with zinc; reversed by EDTA
[7] = molecular target: FUN sensor domain (residues 244-480) of Lotus japonicus FUN (Lotus japonicus); experiment: self-association with zinc; legend to the schematic in FIGS. 3C-3G (DLS, SAXS)
[8] = molecular target: FUN sensor domain (residues 244-480) of Lotus japonicus FUN (Lotus japonicus); experiment: dynamic light scattering, ZnCl2 dose-response, self-association

Measured: binding

B1: FUN sensor with the zipper domain (residues 178-480), N-terminally tagged with 7xHis and GB1 (protein, not shown: small tags and cut ends)
chain: EDQKILRRLAQNREAAKKSRLRKKAYVQQLENSRLKLVQLEQELQRARQQGVFMASPGDQSHLAVGGANGASAFDMEYAHWVDEHQRLLTDLRSALNSQMGDNELHLLVDGVMAHYDELFRLKSLGAKADVFHMHSGLWKTPAERCFMWLGGFRSTELLKIVKNHLEPLTEPQLMGIDNLLRCAQQGEDALTQGMEALQQALVDTLSSTSLGPAGAGNVADYMGQMAIAMGKLATLESFLHSADLVKQQTLQQLQRILTTRQMARALLVRNDYISRLRALSSLWLARPRESSVMSSLPPSNIE
binds: [1] | [2]

B2: FUN sensor domain (residues 244-480) of Lotus japonicus FUN (protein)
chain: GANGASAFDMEYAHWVDEHQRLLTDLRSALNSQMGDNELHLLVDGVMAHYDELFRLKSLGAKADVFHMHSGLWKTPAERCFMWLGGFRSTELLKIVKNHLEPLTEPQLMGIDNLLRCAQQGEDALTQGMEALQQALVDTLSSTSLGPAGAGNVADYMGQMAIAMGKLATLESFLHSADLVKQQTLQQLQRILTTRQMARALLVRNDYISRLRALSSLWLARPRESSVMSSLPPSNIE
not listed: [1] | [2]
binds: all other assays above
